# Test results: PubChem BioAssay (NCATS)
# Sequences of proteins named here, by UniProt entry; tags and fusion partners are left off.
# UniProt P07947, whole entry, looked up: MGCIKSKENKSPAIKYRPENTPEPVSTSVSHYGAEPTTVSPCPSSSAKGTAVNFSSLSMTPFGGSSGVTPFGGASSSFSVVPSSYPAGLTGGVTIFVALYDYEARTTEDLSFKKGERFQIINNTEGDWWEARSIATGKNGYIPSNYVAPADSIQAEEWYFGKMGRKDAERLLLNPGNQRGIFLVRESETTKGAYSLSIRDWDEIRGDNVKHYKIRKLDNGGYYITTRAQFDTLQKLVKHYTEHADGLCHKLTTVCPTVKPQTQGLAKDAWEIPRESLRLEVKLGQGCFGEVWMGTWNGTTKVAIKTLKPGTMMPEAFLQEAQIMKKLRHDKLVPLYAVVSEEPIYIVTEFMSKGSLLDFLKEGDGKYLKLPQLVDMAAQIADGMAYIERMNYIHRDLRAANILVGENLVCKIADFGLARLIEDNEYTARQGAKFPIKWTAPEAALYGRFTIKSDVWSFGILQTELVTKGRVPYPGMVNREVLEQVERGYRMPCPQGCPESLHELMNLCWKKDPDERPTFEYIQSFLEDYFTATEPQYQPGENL
# UniProt P36969, whole entry, looked up: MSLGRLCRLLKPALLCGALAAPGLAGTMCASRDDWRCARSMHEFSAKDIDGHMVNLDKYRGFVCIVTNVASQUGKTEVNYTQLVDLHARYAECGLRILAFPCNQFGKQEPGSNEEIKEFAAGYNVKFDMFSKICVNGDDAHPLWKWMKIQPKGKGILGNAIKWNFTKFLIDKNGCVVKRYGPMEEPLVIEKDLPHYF
# Where “and” joins values, the source holds several entries; their conditions need not be identical. Equal values may be shown once. This list was built around the results that the source calls inconclusive (neither active nor inactive); the mix of calls is not that of the screen. A potency beside an inconclusive call is a rough fit, not a confirmed value. Calls of active or inactive are those of the source. Calls follow the shape of the dose curve; as a rule, active = well fitted curve in the direction sought with a large enough effect; inconclusive = small, poorly fitted or top-dose-only effect, or another doubt; inactive = no such curve, though single readings can be large; an effect the other way counts as inactive or inconclusive.
# Legend:
# [1] = qHTS of pediatric cancer cell lines to identify multiple opportunities for drug repurposing: Confirmatory screen for A673 cells (AID 1347110);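 also: cells exposed to compound for 48 h before the viability read; nearly all actives have a fitted effect of over 65% in size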
# Outline: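 Cells plated at 500-1,000/well were treated five hours later with multi-point dilutions up to 46 µM final. After two days, CellTiter-Glo was added and luminescence read.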
# [2] = qHTS of pediatric cancer cell lines to identify multiple opportunities for drug repurposing: Confirmatory screen for BT-12 cells (AID 1347112);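 also: viability read after 48 h of compound exposure; nearly all actives have a fitted effect of over 55% in size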; as to activity change, negative = cytotoxic: % is scaled to controls: 0 for no effect and ±100 for the full control effect
# Outline: (§1)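 Cells (500-1,000/well) rested 5 h, then received compounds for 48 h; metabolically active cells were measured by CellTiter-Glo luminescence. Final concentrations spanned up to 46 µM (MIPE, 11-point) or 0.59 nM-46 µM (NPC, 8-point) in primary screens, 11-point in follow-ups.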
# [3] = qHTS of pediatric cancer cell lines to identify multiple opportunities for drug repurposing: Confirmatory screen for LAN-5 cells (AID 1347113); also: nearly all actives have a fitted effect of over 65% in size
# Outline: as §1
# [4] = qHTS of pediatric cancer cell lines to identify multiple opportunities for drug repurposing: Confirmatory screen for U-2 OS cells (AID 1347122); also: nearly all actives have a fitted effect of over 65% in size
# Outline: as §1
# [5] = qHTS of pediatric cancer cell lines to identify multiple opportunities for drug repurposing: Confirmatory screen for Rh30 cells (AID 1347126); conditions: Rh30 rhabdomyosarcoma cell viability; activity change, negative = cytotoxic: at 45.9 µM (top of the series); also: nearly all actives have a fitted effect of over 55% in size; as to activity change, negative = cytotoxic: % is scaled to controls: 0 for no effect and ±100 for the full control effect
# Outline: as §1
# [6] = Quantitative High-Throughput drug screen in 47 multiple myeloma cell lines against the NCATS MIPE library collection: NCIH929_DSMZ cell viability assay (AID 1918978); also: nearly all actives have a fitted effect of over 35% in size
# Outline: (§2)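 Inhibition of viability over 48 h was scored by ATP content (CellTiter-Glo) in 500-cell wells. Zero and full viability were defined by media-only and DMSO-only wells.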
# [7] = Quantitative High-Throughput drug screen in 47 multiple myeloma cell lines against the NCATS MIPE library collection: Delta47_JCRB cell viability assay (AID 1918925; also: nearly all actives have a fitted effect of over 45% in size)
# Outline: (§3)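 Myeloma cells (500 per well) were exposed to MIPE 4.0 compounds by pin transfer and incubated 48 hours at 37C, 5% CO2. Viability was read as ATP by CellTiter-Glo luminescence, normalised to DMSO (100%) and media-only (0%) wells.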
# [8] = Quantitative High-Throughput drug screen in 47 multiple myeloma cell lines against the NCATS MIPE library collection: Karpas25_ECACC cell viability assay (AID 1918968; also: nearly all actives have a fitted effect of over 35% in size)
# Outline: as §3
# [9] = Quantitative High-Throughput drug screen in 47 multiple myeloma cell lines against the NCATS MIPE library collection: MM1S_ATCC cell viability assay (AID 1918980); also: nearly all actives have a fitted effect of over 45% in size
# Outline: as §2
# [10] = target: Tyrosine-protein kinase Yes (Homo sapiens) (UniProt P07947); assay: qHTS for small molecule inhibitors of Yes1 kinase: Primary Screen (AID 686947); also: nearly all actives have a fitted effect of over 60% in size
# Outline: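 Yes1 (4 nM) preincubated 20 min with compound, then 60 min room-temperature reaction with 0.1 mM ATP and 0.3 mg/mL poly(E4Y) in pH 7.5 Tris, 10 mM MgCl2. ADP measured by ADP-Glo luminescence, normalised to enzyme/no-enzyme controls.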
# [11] = qHTS of pediatric cancer cell lines to identify multiple opportunities for drug repurposing: Confirmatory screen for DAOY cells (AID 1347114); also: nearly all actives have a fitted effect of over 65% in size; as to activity change, negative = cytotoxic: % is scaled to controls: 0 for no effect and ±100 for the full control effect
# Outline: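 Viability measured as metabolically active cells via CellTiter-Glo luminescence following 48 hours of compound exposure, 11-point dilutions in confirmatory testing. 500-1,000 cells/well plated 5 hours before dosing; controls were DMSO and 2.3 µM bortezomib.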
# [12] = qHTS of pediatric cancer cell lines to identify multiple opportunities for drug repurposing: Confirmatory screen for control Hh wild type fibroblast cells (AID 1347121); also: nearly all actives have a fitted effect of over 70% in size
# Outline: as §1
# C33A = assay: Primary qHTS to identify gynecologic anti-cancer compounds using libraries of approved drugs and bioactive compounds (AID 1345084); conditions: Gynecologic cancer cell panel viability, ATPlite luminescence, 48 h; series mostly up to 57.5 µM; also: nearly all actives have a fitted effect of over 55% in size
# Outline: (§4)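 Measured: luminescence after ATPlite addition (15 min, RT). Exposure: 48 h, 37 C, 5% CO2.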
# Es-2 = assay: as above; conditions: Gynecologic cancer cell panel viability, ATPlite luminescence, 48 h; series mostly up to 57.5 µM
# Outline: as §4
# JEG-3 = assay: as above; conditions: Gynecologic cancer cell panel viability, ATPlite luminescence, 48 h; series mostly up to 57.5 µM
# Outline: as §4
# Tov112D = assay: as above; conditions: Gynecologic cancer cell panel viability, ATPlite luminescence, 48 h; activity change, negative = cytotoxicity: at 57.5 µM (top of the series)
# Outline: as §4
# [13] = qHTS of pediatric cancer cell lines to identify multiple opportunities for drug repurposing: Primary screen for OHS-50 cells (AID 1347103); also: nearly all actives have a fitted effect of over 40% in size
# Outline: as §1
# [14] = qHTS of pediatric cancer cell lines to identify multiple opportunities for drug repurposing: Confirmatory screen for Rh18 cells (AID 1347125); also: nearly all actives have a fitted effect of over 55% in size; as to activity change, negative = cytotoxic: % is scaled to controls: 0 for no effect and ±100 for the full control effect
# Outline: as §1
# [15] = target: Phospholipid hydroperoxide glutathione peroxidase GPX4 (Homo sapiens) (UniProt P36969); assay: Primary qHTS Assay for Inhibitors of Recombinant Selenoprotein Glutathione Peroxidase 4 (GPX4) (AID 1845192); also: nearly all actives have a fitted effect of over 65% in size
# Outline: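 NADPH consumption, followed by fluorescence at 340/450 nm between 0 and 15 min, reports GPX4 activity via coupled glutathione reductase (100 nM). Enzyme 200 nM was pre-exposed to compound 30 min; 0.5 mM cumene hydroperoxide and 1 mM GSH served as substrates.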
# [16] = qHTS of pediatric cancer cell lines to identify multiple opportunities for drug repurposing: Confirmatory screen for NB-EBc1 cells (AID 1347115);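 also: cells exposed to compound for 48 h before the viability read; nearly all actives have a fitted effect of over 45% in size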
# Outline: as §1
# Potency is read from the fitted curve at half-maximal effect.
structure (smiles),measurement,setting,value
C=C1C(=CC=C2CCC[C@]3(C)[C@@H]([C@H](C)C=C[C@H](C)C(C)C)CC[C@@H]23)C[C@@H](O)C[C@@H]1O,Potency,[1],"inconclusive: 36.9 µM [cytotoxic, single point]"
same,Potency,[2],"inconclusive: 36.9 µM [cytotoxic, single point]"
same,Potency,[3],"inconclusive: 36.9 µM [cytotoxic, single point]"
same,Potency,[4],"inconclusive: 36.9 µM [cytotoxic, single point]"
same,Potency,[5],"inconclusive: 32.9 µM [cytotoxic, single point]"
same,Potency,[6],active: 0.935 µM
CCN(c1ccccc1)c1cc(NC)[n+](C)c(C)n1,Potency,[7],inactive
same,Potency,[8],"inconclusive: 0.332 µM [cytotoxic, full curve, poor fit]"
same,Potency,[9],"inconclusive: 18.7 µM [cytotoxic, partial curve, poor fit]"
N#Cc1ccc(COC[C@H]2O[C@@H](n3c(NCc4ccc(Cl)c(Cl)c4)nc4c(N)ncnc43)[C@@H](O)[C@@H]2O)cc1,Potency,[10],active: 0.487 µM
O=C(Nc1cc(C(F)(F)F)cc(C(F)(F)F)c1)c1cc(Cl)ccc1O,Potency,[11],"inconclusive: 1.85 µM [cytotoxic, full curve, poor fit]"
same,Potency,[12],active: 2.33 µM
same,Potency,[4],"inconclusive: 0.329 µM [cytotoxic, full curve, poor fit]"
same,Potency,[5],"inconclusive: 0.414 µM [cytotoxic, full curve, poor fit]"
same,Potency,[9],active: 0.59 µM
same,Potency,C33A,active: 3.16 µM
same,Potency,Es-2,active: 5.01 µM
same,Potency,JEG-3,"inconclusive: 10 µM [cytotoxic, partial curve, poor fit]"
same,Potency,Tov112D,active: 3.55 µM
CC1(C)CNc2cc(NC(=O)c3cccnc3NCc3ccncc3)ccc21,Potency,[13],"inconclusive: 0.611 µM [cytotoxic, partial curve]"
same,Potency,[6],"inconclusive: 0.235 µM [cytotoxic, full curve, poor fit]"
same,Potency,[9],"inconclusive: 26.4 µM [cytotoxic, partial curve, poor fit]"
CNC1CCN(C(Cc2cccc(-c3ccncc3)c2)C(=O)c2sc3c(F)ccc(F)c3c2Cl)CC1 (stereo not drawn),Potency,[10],inactive
CC1(C)CCC(c2ccc(Cl)cc2)=C(CN2CCN(c3ccc(C(=O)NS(=O)(=O)c4ccc(N[C@H](CCN5CCOCC5)CSc5ccccc5)c(S(=O)(=O)C(F)(F)F)c4)cc3)CC2)C1,Potency,[2],inactive
same,Potency,[14],inactive
same,"activity change, negative = cytotoxic",[5],inconclusive: 42.1%
same,Potency,[15],"inconclusive: 12.8 µM [inhibitor, partial curve, poor fit] and active: 10.1 µM"
same,Potency,[8],active: 0.833 µM
same,Potency,[9],active: 0.332 µM
same,Potency,C33A,"inconclusive: 39.8 µM [cytotoxic, single point]"
same,Potency,JEG-3,"inconclusive: 31.6 µM [cytotoxic, single point]"
same,Potency,Tov112D,"inconclusive: 39.8 µM [cytotoxic, single point]"
COc1cc2nccc(Oc3ccc(NC(=O)C4(C(=O)Nc5ccc(F)cc5)CC4)cc3)c2cc1OC,Potency,[3],"inconclusive: 16.5 µM [cytotoxic, partial curve]"
same,Potency,[11],"inconclusive: 16.5 µM [cytotoxic, partial curve]"
same,Potency,[12],inactive
same,Potency,[14],"inconclusive: 18.5 µM [cytotoxic, partial curve]"
same,Potency,[5],"inconclusive: 10.4 µM [cytotoxic, full curve]"
same,Potency,[6],active: 16.6 µM
same,Potency,C33A,"inconclusive: 39.8 µM [cytotoxic, single point]"
same,Potency,JEG-3,active: 11.2 µM
same,Potency,Tov112D,"inconclusive: 39.8 µM [cytotoxic, single point]"
CN(C)CCCN=c1c2ccccc2n(C)c2[nH]c(=O)n(C)c(=O)c12,Potency,[10],inactive
same,Potency,[1],"inconclusive: 29.3 µM [cytotoxic, single point]"
same,Potency,[3],active: 23.3 µM
same,Potency,[11],inactive
same,Potency,[16],"inconclusive: 26.1 µM [cytotoxic, single point]"
same,Potency,[14],"inconclusive: 32.9 µM [cytotoxic, single point]"
same,Potency,[5],"inconclusive: 32.9 µM [cytotoxic, single point]"
same,Potency,[8],"inconclusive: 13.2 µM [cytotoxic, partial curve]"
CNC(=O)c1cc(Oc2ccc(NC(=O)Nc3cc(C(C)(C)C)nn3-c3ccc4ncccc4c3)c(F)c2)ccn1,Potency,[7],active: 5.9 µM
same,Potency,C33A,"inconclusive: 39.8 µM [cytotoxic, single point]"
same,Potency,Es-2,"inconclusive: 28.2 µM [cytotoxic, single point]"
same,Potency,JEG-3,"inconclusive: 28.2 µM [cytotoxic, single point]"
same,Potency,Tov112D,"inconclusive: 39.8 µM [cytotoxic, single point]"
COc1cc(=C2C=c3ccccc3=N2)[nH]c1=Cc1[nH]c(C)cc1C,Potency,[10],"inconclusive: 34.5 µM [inhibitor, partial curve, poor fit]"
same,Potency,[11],"inconclusive: 3.1 µM [cytotoxic, full curve, poor fit]"
same,Potency,[16],"inconclusive: 26.1 µM [cytotoxic, single point]"
same,Potency,[12],"inconclusive: 10.4 µM [cytotoxic, partial curve, poor fit]"
same,Potency,[4],"inconclusive: 4.91 µM [cytotoxic, full curve, poor fit]"
same,Potency,[14],"inconclusive: 18.5 µM [cytotoxic, partial curve]"
same,Potency,[8],active: 0.743 µM
Cn1cncc1[C@@](N)(c1ccc(Cl)cc1)c1ccc2c(c1)c(-c1cccc(Cl)c1)cc(=O)n2C,Potency,[15],"inconclusive: 14.1 µM [inhibitor, partial curve]"
same,Potency,[9],active: 6.62 µM
Cc1c(CN2CCN(C(=O)C(C)C)CC2)sc2c(N3CCOCC3)nc(-c3cnc(N)nc3)nc12,Potency,[1],active: 1.47 µM
same,Potency,[2],"inconclusive: 1.04 µM [cytotoxic, full curve]"
same,Potency,[11],"inconclusive: 1.17 µM [cytotoxic, full curve]"
same,Potency,[16],"inconclusive: 1.47 µM [cytotoxic, full curve, poor fit]"
same,Potency,[12],"inconclusive: 0.522 µM [cytotoxic, full curve]"
Cc1cc(Nc2cc(N3CCN(C)CC3)nc(Sc3ccc(NC(=O)C4CC4)cc3)n2)n[nH]1,Potency,[2],"inconclusive: 36.9 µM [cytotoxic, partial curve, poor fit]"
same,Potency,[3],"inconclusive: 26.1 µM [cytotoxic, partial curve, poor fit]"
same,Potency,[11],active: 5.22 µM
same,Potency,[16],"inconclusive: 3.69 µM [cytotoxic, full curve]"
same,Potency,[14],"inconclusive: 20.8 µM [cytotoxic, partial curve]"
same,Potency,[5],active: 5.85 µM
same,Potency,JEG-3,inactive
same,Potency,Tov112D,"inconclusive: 22.4 µM [cytotoxic, partial curve, poor fit]"
Cc1cc(Nc2cc(NC(=O)c3c(Cl)cccc3Cl)ccn2)nc(N)n1,Potency,[1],active: 0.603 µM
same,Potency,[11],"inconclusive: 6.76 µM [cytotoxic, partial curve, poor fit]"
same,Potency,[16],"inconclusive: 1.47 µM [cytotoxic, full curve]"
same,Potency,[12],active: 20.8 µM
same,Potency,[4],"inconclusive: 0.537 µM [cytotoxic, full curve, poor fit]"
same,Potency,[14],"inconclusive: 36.9 µM [cytotoxic, single point]"
same,Potency,[6],active: 9.35 µM
same,Potency,[9],active: 0.209 µM
CC(=O)NC(C)c1ccc(Oc2ccc(OC(C)C)cc2)cc1 (stereo not drawn),Potency,[10],"inconclusive: 24.4 µM [inhibitor, partial curve, poor fit]"
same,Potency,[7],"inconclusive: 1.48 µM [cytotoxic, full curve, poor fit]"
same,Potency,[9],"inconclusive: 11.8 µM [cytotoxic, partial curve, poor fit]"
O=c1[nH]nc(Sc2ncc([N+](=O)[O-])s2)n1-c1ccc2c(c1)OCCO2,Potency,[2],active: 9.27 µM
same,Potency,[12],"inconclusive: 26.1 µM [cytotoxic, single point]"
same,Potency,[14],"inconclusive: 32.9 µM [cytotoxic, single point]"
same,Potency,[6],active: 0.833 µM
Cn1c(Nc2ccc(C(F)(F)F)cc2)nc2cc(Oc3ccnc(-c4ncc(C(F)(F)F)[nH]4)c3)ccc21,Potency,[13],"inconclusive: 2.17 µM [cytotoxic, partial curve, poor fit]"
same,Potency,[1],"inconclusive: 1.31 µM [cytotoxic, full curve]"
same,Potency,[2],"inconclusive: 20.8 µM [cytotoxic, partial curve]"
same,Potency,[3],active: 18.5 µM
same,Potency,[11],"inconclusive: 18.5 µM [cytotoxic, partial curve, poor fit]"
same,Potency,[12],"inconclusive: 16.5 µM [cytotoxic, partial curve]"
same,Potency,[4],"inconclusive: 16.5 µM [cytotoxic, partial curve, poor fit]"
same,Potency,[5],"inconclusive: 23.3 µM [cytotoxic, single point]"
same,Potency,[6],"inconclusive: 11.8 µM [cytotoxic, partial curve]"
C[C@@H]1CN(CC(=O)Nc2ccc3c(c2)Cc2cccc(-c4cc(=O)cc(N5CCOCC5)o4)c2S3)C[C@H](C)O1,Potency,[13],active: 21.7 µM
same,Potency,[15],"inconclusive: 22.7 µM [inhibitor, partial curve]"
same,Potency,[6],active: 5.9 µM
